Values from PubChem BioAssay AID504774 (Drosophila RNAi Screening Center, 2011)

Assay: 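Genes required for cells to withstand methyl methanesulphonate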 (primary screen)
System: Drosophila Kc167 cells
Knock-down reagent: long dsRNA against Drosophila genes, about 0.25 µg dsRNA per well
Time to read-out: about 6 days: 3 days knock-down, then 3 days with or without MMS
Treatment: methyl methanesulphonate 0.004% (w/v) for 3 days after knock-down
Detection: 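ATP-dependent luminescence as a measure of live cells in MMS-exposed wells, quantile normalised within each plate, with replicate values also given as a mean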
Scale: mean viability with MMS and viability with MMS: higher = more surviving cells after MMS
In all, the deposit lists about 23,000 reagents; this is an unselected part of those with a known target gene and a result. 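Values are quantile-normalised luminescence on an arbitrary scale; higher means more cells surviving MMS.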 Not all columns of the deposit are shown.

{"Target gene": "CG33128 (GeneID 326263)", "amplicon": "DRSC00294", "mean viability with MMS": 3.50e6, "viability with MMS, replicate 1": 4.19e6}
{"Target gene": "Pepck1 (GeneID 37131)", "amplicon": "DRSC07505", "mean viability with MMS": 3.58e6, "viability with MMS, replicate 1": 4.08e6}
{"Target gene": "robl (GeneID 36963)", "amplicon": "DRSC07674", "mean viability with MMS": 3.51e6, "viability with MMS, replicate 1": 4.04e6}
{"Target gene": "shv (GeneID 33220)", "amplicon": "DRSC00640", "mean viability with MMS": 3.60e6, "viability with MMS, replicate 1": 4.08e6}
{"Target gene": "shv (GeneID 33220)", "amplicon": "DRSC22122", "mean viability with MMS": 3.51e6, "viability with MMS, replicate 1": 3.92e6}
{"Target gene": "CG31104 (GeneID 43054)", "amplicon": "DRSC14658", "mean viability with MMS": 3.55e6, "viability with MMS, replicate 1": 4.02e6}
{"Target gene": "CG3213 (GeneID 33574)", "amplicon": "DRSC00576", "mean viability with MMS": 3.57e6, "viability with MMS, replicate 1": 3.63e6}
{"Target gene": "CG1231 (GeneID 38060)", "amplicon": "DRSC08267", "mean viability with MMS": 3.51e6, "viability with MMS, replicate 1": 3.92e6}
{"Target gene": "CG2736 (GeneID 37998)", "amplicon": "DRSC04314", "mean viability with MMS": 3.56e6, "viability with MMS, replicate 1": 4.16e6}
{"Target gene": "brn (GeneID 31358)", "amplicon": "DRSC18746", "mean viability with MMS": 3.10e6, "viability with MMS, replicate 1": 3.73e6}
{"Target gene": "Ssdp (GeneID 42177)", "amplicon": "DRSC16211", "mean viability with MMS": 3.58e6, "viability with MMS, replicate 1": 4.15e6}
{"Target gene": "Fkbp59 (GeneID 47762)", "amplicon": "DRSC03323", "mean viability with MMS": 3.56e6, "viability with MMS, replicate 1": 4.23e6}
{"Target gene": "Psi (GeneID 36889)", "amplicon": "DRSC07519", "mean viability with MMS": 3.57e6, "viability with MMS, replicate 1": 4.03e6}
{"Target gene": "Rab5 (GeneID 33418)", "amplicon": "DRSC00777", "mean viability with MMS": 3.34e6, "viability with MMS, replicate 1": 3.82e6}
{"Target gene": "Oseg6 (GeneID 37245)", "amplicon": "DRSC06066", "mean viability with MMS": 3.46e6, "viability with MMS, replicate 1": 3.84e6}
{"Target gene": "CG3618 (GeneID 40303)", "amplicon": "DRSC11746", "mean viability with MMS": 3.49e6, "viability with MMS, replicate 1": 3.96e6}
{"Target gene": "CG17097 (GeneID 34461)", "amplicon": "DRSC02569", "mean viability with MMS": 3.27e6, "viability with MMS, replicate 1": 3.68e6}
{"Target gene": "Cnep1r2 (GeneID 39204)", "amplicon": "DRSC10950", "mean viability with MMS": 3.77e6, "viability with MMS, replicate 1": 4.25e6}
{"Target gene": "Skadu (GeneID 8673966)", "amplicon": "DRSC01490", "mean viability with MMS": 3.65e6, "viability with MMS, replicate 1": 4.07e6}
{"Target gene": "CG9822 (GeneID 37440)", "amplicon": "DRSC04568", "mean viability with MMS": 3.45e6, "viability with MMS, replicate 1": 3.82e6}
{"Target gene": "Tdrd3 (GeneID 39612)", "amplicon": "DRSC10016", "mean viability with MMS": 3.64e6, "viability with MMS, replicate 1": 4.22e6}
{"Target gene": "Dup99B (GeneID 2768691)", "amplicon": "DRSC22877", "mean viability with MMS": 3.39e6, "viability with MMS, replicate 1": 3.87e6}
{"Target gene": "galla-1 (GeneID 246485)", "amplicon": "DRSC05987", "mean viability with MMS": 3.67e6, "viability with MMS, replicate 1": 4.18e6}
{"Target gene": "GCS1 (GeneID 32073)", "amplicon": "DRSC19744", "mean viability with MMS": 3.60e6, "viability with MMS, replicate 1": 3.96e6}
{"Target gene": "Grl40a (GeneID 4379897)", "amplicon": "DRSC03677", "mean viability with MMS": 3.43e6, "viability with MMS, replicate 1": 3.89e6}
{"Target gene": "E(bx) (GeneID 44811)", "amplicon": "DRSC08172", "mean viability with MMS": 3.44e6, "viability with MMS, replicate 1": 3.91e6}
{"Target gene": "E(bx) (GeneID 44811)", "amplicon": "DRSC08509", "mean viability with MMS": 3.22e6, "viability with MMS, replicate 1": 3.66e6}
{"Target gene": "E(bx) (GeneID 44811)", "amplicon": "DRSC08583", "mean viability with MMS": 3.00e6, "viability with MMS, replicate 1": 3.64e6}
{"Target gene": "Twdlalpha (GeneID 326223)", "amplicon": "DRSC19914", "mean viability with MMS": 3.47e6, "viability with MMS, replicate 1": 3.92e6}
{"Target gene": "COX1 (retired record) (GeneID 192469)", "amplicon": "DRSC21275", "mean viability with MMS": 3.54e6, "viability with MMS, replicate 1": 4.02e6}
{"Target gene": "CG31642 (GeneID 326149)", "amplicon": "DRSC02919", "mean viability with MMS": 3.57e6, "viability with MMS, replicate 1": 4.24e6}
{"Target gene": "CG32563 (GeneID 32706)", "amplicon": "DRSC19934", "mean viability with MMS": 3.44e6, "viability with MMS, replicate 1": 3.80e6}
{"Target gene": "Plod (GeneID 39265)", "amplicon": "DRSC10601", "mean viability with MMS": 3.66e6, "viability with MMS, replicate 1": 4.18e6}
{"Target gene": "Plod (GeneID 39265)", "amplicon": "DRSC10602", "mean viability with MMS": 3.58e6, "viability with MMS, replicate 1": 4.01e6}
{"Target gene": "CG7573 (GeneID 39272)", "amplicon": "DRSC10884", "mean viability with MMS": 3.60e6, "viability with MMS, replicate 1": 4.01e6}

Limited to “mean viability with MMS”, for 3 of the entries above:
CG31642 (GeneID 326149) [DRSC02919] = 3.57e6
CG32563 (GeneID 32706) [DRSC19934] = 3.44e6
Plod (GeneID 39265) [DRSC10601] = 3.66e6
